Source: US20210261642A1, “SOLUBILITY OF GLP-1 PEPTIDE” (Novo Nordisk A/S, priority 2017, published 2021)
Further values from the same series stand in other lists.

Test: Assay (I): Determination of Solubility (96-well plate, pH 3.0-11.0, organic solvent 0-70% w/w, UV absorption at 280 nm)
Type: physicochemical
Conditions: MeCN 19.1% w/w, Method 1
Procedure: Assay (I): Determination of Solubility
96-Well Plate Preparation
96-well plates containing target peptide in a solid form were prepared in one of two ways:
Method 1 (evaporation): Addition of 100 μl stock solution of said peptide at a concentration of 4-6 mg/ml to each well of a 96-well half area plate (150 μl well size). Subsequently the solvent was evaporated by applying a vacuum until the solvent was completely removed.
Method 2 (precipitation): Addition of a certain volume of a stock solution of said peptide containing to each well of a 96-well half area plate followed by the addition of a certain volume of concentrated phosphoric acid to obtain a pH of 4.6 followed by addition of a certain volume of ethanol resulting in a final ethanol concentration of 20% v/v. Subsequently the plate was stored at 4° C. for 1 h and then centrifuged at 4,000 rpm for 20 min. Finally the supernatant was removed. The concentration of the stock solution was chosen in a way that the final amount of peptide after supernatant removal was >0.4 mg per well.
In both cases the stock solution was prepared by adding de-ionized water to a certain amount of powder of said peptide followed by a stepwise addition of small amounts of a concentrated sodium hydroxide solution until said peptide was completely in solution.
To determine solubility of a target peptide at different pH and organic solvent concentrations, two different buffer systems were used in independent experiments to cover the whole range from pH 3.0 to pH 11.0. Buffer system 1 covers pH 3.0-7.5 and buffer system 2 covers pH 7.5-11.0. For each buffer system 96 different solvent compositions were premixed in the following way: • 1. A low pH buffer (adjusted to either pH 3.0 or pH 7.5) and a high pH buffer (adjusted to either pH 7.5 or pH 11.0) were mixed at 8 different ratios to obtain values between pH 3.0 and pH 7.5 or pH 7.5 and pH 11.0, respectively. The total volume after mixing was 300 μl. • 2. 12 different amounts of organic solvent were then added to these buffers to obtain organic solvent (e.g. ethanol) concentrations between 0 and 70% w/w. • 3. Water was then added to obtain a total weight of 1.0 g of solvent in each well.
After preparing the 96 different solvent systems, 100 μl of each system was transferred to the 96-well plate containing the solid form of the target peptide (prepared as described in the section “96-well plate preparation”). The plate was then stored at a given temperature (between 5° C. and 70° C.) for a given time on a rotating shaker set to 400 rpm. At regular time intervals the plate was centrifuged (4,000 rpm for 10 min) and a 10 μl sample was taken from each well. The samples were then analysed by UV absorption at 280 nm for peptide quantification. Peptide concentration results are given as UV absorption at 280 nm of the sample subtracted UV absorption at 280 nm of a well comprising 10 μl water.
The buffers used were as follows: • Buffer system 1 (for the pH range from pH 3.0-7.5)
• Buffer system 2 (for the pH ranae from pH 7.5-11.0)
Solubility of liraglutide was determined using Assay (I) described herein. Liraglutide was prepared using Method 1 (evaporation) or Method 2 (precipitation) as described in subsection “96-well plate preparation”.

With `CCCCCCCCCCCCCCCC(=O)N[C@@H](CCC(=O)NCCCC[C@H](NC(=O)[C@H](C)NC(=O)[C@H](C)NC(=O)[C@H](CCC(N)=O)NC(=O)CNC(=O)[C@H](CCC(=O)O)NC(=O)[C@H](CC(C)C)NC(=O)[C@H](Cc1ccc(O)cc1)NC(=O)[C@H](CO)NC(=O)[C@H](CO)NC(=O)[C@@H](NC(=O)[C@H](CC(=O)O)NC(=O)[C@H](CO)NC(=O)[C@@H](NC(=O)[C@H](Cc1ccccc1)NC(=O)[C@@H](NC(=O)CNC(=O)[C@H](CCC(=O)O)NC(=O)[C@H](C)NC(=O)[C@@H](N)Cc1cnc[nH]1)[C@@H](C)O)[C@@H](C)O)C(C)C)C(=O)N[C@@H](CCC(=O)O)C(=O)N[C@@H](Cc1ccccc1)C(=O)N[C@H](C(=O)N[C@@H](C)C(=O)N[C@@H](Cc1c[nH]c2ccccc12)C(=O)N[C@@H](CC(C)C)C(=O)N[C@H](C(=O)N[C@@H](CCCNC(=N)N)C(=O)NCC(=O)N[C@@H](CCCNC(=N)N)C(=O)NCC(=O)O)C(C)C)[C@@H](C)CC)C(=O)O` [liraglutide, Arg34,Lys26-(N-epsilon-(gamma-L-glutamyl(N-alfa-hexadecanoyl)))-GLP-1(7-37)] the “Peptide concentration after 180 min” value (pH 3.0, 5° C.) was 1.4 mg/mL, the “Peptide concentration after 24 h” value (pH 3.0, 5° C.) was 1.5 mg/mL and the “Peptide concentration after 5 min” value (pH 3.0, 70° C.) was 1.8 mg/mL. For the same compound, the “Peptide concentration after 180 min” value (pH 3.0, 70° C.) was 1.1 mg/mL, the “Peptide concentration after 5 min” value (pH 3.0, RT) was 1.0 mg/mL and the “Peptide concentration after 180 min” value (pH 3.0, RT) was 1.6 mg/mL. For the same compound, the “Peptide concentration after 24 h” value (pH 3.0, RT) was 1.6 mg/mL, the “Peptide concentration after 5 min” value (pH 3.6, 5° C.) was 0.1 mg/mL and the “Peptide concentration after 180 min” value (pH 3.6, 5° C.) was 0.2 mg/mL. For the same compound, the “Peptide concentration after 24 h” value (pH 3.6, 5° C.) was 0.2 mg/mL, the “Peptide concentration after 5 min” value (pH 3.6, 70° C.) was 0.1 mg/mL and the “Peptide concentration after 180 min” value (pH 3.6, 70° C.) was 0.0 mg/mL. For the same compound, the “Peptide concentration after 5 min” value (pH 3.6, RT) was 0.1 mg/mL, the “Peptide concentration after 180 min” value (pH 3.6, RT) was 0.1 mg/mL and the “Peptide concentration after 24 h” value (pH 3.6, RT) was 0.0 mg/mL. The “Peptide concentration after 5 min” value (pH 4.3, 5° C.) was 0.1 mg/mL, the “Peptide concentration after 180 min” value (pH 4.3, 5° C.) was 0.1 mg/mL and the “Peptide concentration after 24 h” value (pH 4.3, 5° C.) was 0.1 mg/mL. For the same compound, the “Peptide concentration after 5 min” value (pH 4.3, 70° C.) was 0.1 mg/mL, the “Peptide concentration after 180 min” value (pH 4.3, 70° C.) was 0.1 mg/mL and the “Peptide concentration after 5 min” value (pH 4.3, RT) was 0.1 mg/mL. For the same compound, the “Peptide concentration after 180 min” value (pH 4.3, RT) was 0.1 mg/mL, the “Peptide concentration after 24 h” value (pH 4.3, RT) was 0.0 mg/mL and the “Peptide concentration after 5 min” value (pH 4.9, 5° C.) was 0.1 mg/mL. The “Peptide concentration after 180 min” value (pH 4.9, 5° C.) was 0.1 mg/mL, the “Peptide concentration after 24 h” value (pH 4.9, 5° C.) was 0.2 mg/mL and the “Peptide concentration after 5 min” value (pH 4.9, 70° C.) was 0.1 mg/mL. The “Peptide concentration after 180 min” value (pH 4.9, 70° C.) was 0.1 mg/mL, the “Peptide concentration after 5 min” value (pH 4.9, RT) was 0.1 mg/mL and the “Peptide concentration after 180 min” value (pH 4.9, RT) was 0.1 mg/mL. For the same compound, the “Peptide concentration after 24 h” value (pH 4.9, RT) was 0.0 mg/mL, the “Peptide concentration after 5 min” value (pH 5.6, 5° C.) was 0.2 mg/mL and the “Peptide concentration after 180 min” value (pH 5.6, 5° C.) was 0.1 mg/mL. The “Peptide concentration after 24 h” value (pH 5.6, 5° C.) was 0.2 mg/mL, the “Peptide concentration after 5 min” value (pH 5.6, 70° C.) was 0.2 mg/mL and the “Peptide concentration after 180 min” value (pH 5.6, 70° C.) was 0.1 mg/mL. For the same compound, the “Peptide concentration after 5 min” value (pH 5.6, RT) was 0.6 mg/mL, the “Peptide concentration after 180 min” value (pH 5.6, RT) was 0.1 mg/mL and the “Peptide concentration after 24 h” value (pH 5.6, RT) was 0.1 mg/mL. The “Peptide concentration after 5 min” value (pH 6.2, 5° C.) was 0.7 mg/mL, the “Peptide concentration after 180 min” value (pH 6.2, 5° C.) was 0.6 mg/mL and the “Peptide concentration after 24 h” value (pH 6.2, 5° C.) was 0.4 mg/mL. The “Peptide concentration after 5 min” value (pH 6.2, 70° C.) was 1.3 mg/mL, the “Peptide concentration after 180 min” value (pH 6.2, 70° C.) was 0.7 mg/mL and the “Peptide concentration after 5 min” value (pH 6.2, RT) was 0.8 mg/mL. The “Peptide concentration after 180 min” value (pH 6.2, RT) was 0.8 mg/mL, the “Peptide concentration after 24 h” value (pH 6.2, RT) was 0.8 mg/mL and the “Peptide concentration after 5 min” value (pH 6.9, 5° C.) was 2.5 mg/mL. The “Peptide concentration after 180 min” value (pH 6.9, 5° C.) was over 4.0 mg/mL and the “Peptide concentration after 24 h” value (pH 6.9, 5° C.) was over 4.0 mg/mL.
